## Results of single-concentration screens

Data taken from ChEMBL document CHEMBL3988442, “University of Dundee, Small-Polar-MMV Screening Library” (2021).

T. brucei: 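Whole-parasite assay of Trypanosoma brucei over 72 hours; the read-out is not stated. Concentration: 30 µM. The record gives no direction; compounds that gave an IC50 in retests scored well above the rest, so higher reads as stronger inhibition. Values scatter widely below zero; nearly all retest evidence comes from the higher of the two concentrations used. About 64,000 compounds were tested under these conditions; 1.5% (about 940) showed 50% or more at least once.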
Leishmania in macrophages: 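Cell assay of Leishmania donovani living inside macrophages; the read-out is not stated. Tested at 30 µM. Direction is inferred from retests: higher values go with stronger inhibition. About 69,000 compounds were tested under these conditions; 1.5% (about 1,000) showed 50% or more at least once.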

Values are the deposited “Percent Effect”, in %.
The record does not define 0% and 100%; most values in the screen are far below 50% and negative numbers occur (in some assays of this library far below -100).
The compounds are a random part of those screened.
Two or more numbers in one place are separate tests of the same structure; such repeats can differ widely.
A dash means the value is not listed here; it may have been measured.

structure,T. brucei,Leishmania in macrophages
COCc1nnn2c1CN(C(=O)c1ccnnc1)CCC2,-,-21.67
OCCCNC1CCc2cc3c(cc21)OCCO3 (centres undefined),-7.619,7.689
Cc1ccc(CNC(=O)N(C)Cc2cnn(C)c2)s1,-,23.67
CN(C)CCOCC1CN(Cc2ccoc2)Cc2nnn(C)c21.O=C(O)C(F)(F)F.O=C(O)C(F)(F)F (centres undefined),18.32,13.96
N#CCCCS(=O)(=O)NC1(c2cccc(Br)c2)CC1,-5.392,27.92
O=C(Nc1nncs1)c1ccc(-n2cnnn2)cc1,-72.6,-10.13
Cc1ccc(C(=O)NCCCN2CCOCC2)c(Cl)c1,0.3747,19.42
O=C(NCCc1cccc(F)c1)NCC(O)c1cccc(F)c1 (centres undefined),47.82,26.28
Cc1cncc(C(=O)N2CCNCC2C(=O)Nc2ccc(C)nc2)c1 (centres undefined),-6.502,-1.651
CC(C)c1nc2c(n1C)CCN(CC(=O)Nc1ccc(Cl)cn1)C2,7.532,26.4
Cc1nnc(CN(C)Cc2nc3c(s2)CCCC3)o1,2.794,12.85
O=C(NCc1ccco1)c1cccc(C(=O)NCc2ccco2)n1,-44.59,14.92 & 22.18
Cc1nc2ccc(Cl)cn2c1CN1CCN(S(=O)(=O)N2CCCC2)CC1,-16.79,5.178
Cn1cc(C2=CCN(CCCOc3ccc(C(N)=O)cc3)CC2)cn1,7.509,-0.4048
O=C(O)C(F)(F)F.O=C(O)C(F)(F)F.O=C1CC[C@]2(CC[C@@H](NCc3cccnc3)CC2)N1Cc1ccccc1,-8.067,24.14
Cc1ccc2c(c1)C(=O)NCC1(CCN(C(=O)c3sccc3C)CC1)O2,12.35,-12.66
O=C(NCC1(C(=O)O)CCC1)c1nnn(-c2ccc(F)cc2)c1C1CC1,-72.34,7.331
CCc1nnc(CN(C)Cc2cccc(C(=O)Nc3nccs3)c2)o1,-39.13,26.25
Cc1cc(CN(C)C(=O)c2ccc(Cl)c(S(C)(=O)=O)c2)no1,-11.58,4.127
Cn1cc(CN2CCC[C@]3(C[C@@H](Oc4ncccc4F)CO3)C2)cn1.O=C(O)C(F)(F)F.O=C(O)C(F)(F)F,0.8954,62.31
[H][C@@]12COC[C@]1([H])[C@@H](OCC1CCOCC1)CN2Cc1ccco1,-,35.26
COCCC(=O)N1CCCC2(CCC(=O)N2CCOC)CC1 (centres undefined),-19.49,21.29
NC(=O)[C@@H]1Cc2ccccc2CN1S(=O)(=O)N1CCCCC1,-21.47,23.31
CC(=O)Nc1ccc(-c2cn(CCn3c(C)cc(C)nc3=O)nn2)cc1,-2.596,1.651
Cc1nc(C)n(CC2CCCCN2Cc2nnc(C3CC3)o2)n1 (centres undefined),16.88,25.38
CCc1cnc(N2CCc3ncnc(N4CCN(C)CC4)c3CC2)nc1.O=C(O)C(F)(F)F,-,7.451
CCC(N)c1ccccc1OCC(=O)N1CCCC1 (centres undefined),2.595,17.77
COc1ccc(C(C)NCc2cccs2)cc1Cn1cccn1 (centres undefined),-49.6,29.44
Cn1cnnc1CNC(=O)Nc1cc(C(F)(F)F)c[nH]c1=O,-0.7098,8.913
Cc1ccc(C(CNC(=O)Cc2nc3ncccn3n2)N(C)C)cc1 (centres undefined),-41.38,18.59
Cc1cc(CCC(=O)N2CCC(O)CC2)ccc1Br,9.658,8.628
CCc1nc(CN(C)C(=O)C2CCC(=O)N(CC3CCCCC3)C2)no1 (centres undefined),-25.53,2.489
CN1CCOC(CNC(=O)CCc2cc(F)ccc2F)C1 (centres undefined),-7.612,17.01
CS(=O)(=O)N1CCC2(CC1)CN(CC1CC1)CC21CCNC1=O.O=C(O)C(F)(F)F (centres undefined),-20.84,-2.586
Cc1ccc(CN2CC[C@@H](N(C)C(C)C)[C@@H]2Cc2ccccc2)o1,-16.03,21.81
O=C(O)C(F)(F)F.[H][C@@]12COC[C@]1(CNS(C)(=O)=O)CN(Cc1cc(C)on1)C2,-10.81,-7.825
CCN1CCCCC1C(=O)N1CCC(OC2CCCC2)CC1 (centres undefined),-45.58,0.9317
COc1ccc(C2CCCN2C(=O)NCCNc2ccccn2)cc1 (centres undefined),-13.88,69.63
Cc1noc(C2CCCCN2C(=O)NC2CCCC2)n1 (centres undefined),-9.535,12.53
[H][C@@]12CS(=O)(=O)C[C@]1([H])N(C(=O)c1ccnc(N)c1)CCN2CCC,-3.46,2.737
CCC(CC)c1nnc(NC(=O)NC(C)Cn2cccn2)s1 (centres undefined),-,-5.823
CCCn1ncc(C(=O)N2CCN(C3CCCC3)CC2)c1C,-76.38,15.55
CCOCc1nc(N2CCCC2)sc1C(=O)NCCC(=O)OCC,-6.477,4.328
Cc1[nH]c2ccccc2c1-c1ccnc(N[C@H](CO)CC(C)C)n1,57.39,-1.994 & 26.73
COCCOc1ccc(S(=O)(=O)Nc2cccc(O)c2F)cc1C,-44.69,23.59
O=C(CC1COCCN1)NCCc1nc(-c2ccccn2)no1 (centres undefined),-34.01,17.65
CC(=O)N(C)CC(=O)NCC1CCN(c2cc(Cl)ccc2C)C1 (centres undefined),7.062,27.42
COc1ccnc(N(C)Cc2ccco2)n1,-20.1,-19.85
CNc1snc(C)c1C(=O)N1CCC(Nc2ccc(C)nn2)CC1,-,18.39
CC1(C)COCCN1C(=O)Cc1cc(Cl)c2c(c1)OCCO2,-25.6,2.751
CC(C)c1nc(C2CCCN2CCOCC2CC2)no1 (centres undefined),-33.53,25.42
CCCn1ccnc1-c1nccn1CCN(C)C,-18.34,23.86
CC(C)CN(CC(F)(F)F)S(=O)(=O)c1cc(C(N)=O)n(C)c1,6.192,36.22
CCc1cc(C(=O)N[C@@H]2CC[C@@H](N3CCOCC3)[C@@H]2O)no1,-0.8905,-5.728
Cc1cc(NC(=O)N(CC2CCOC2)C2CC2)no1 (centres undefined),-17.49,6.865
CCC(C)CN1CCC(n2cc(C3CCCC3)nn2)CC1 (centres undefined),4.536,19.15
CN(C)c1nccc(C2CN(C(=O)CO)C2)n1,-9.298,11.52
[H][C@@]12C[C@@H](OCc3cccc(C)n3)CN1CCN(C(=O)c1cnccn1)C2,-43.93,21.62
O=C(Cc1ccccc1Cl)Nc1ccn(CCN2CCOCC2)n1,-20.06,7.466
COc1ccc(NC(=O)CNc2cccc3c2CCCC3)c(OC)c1,-2.783,5.214
CC(C)Nc1nc(N2CCCC2)nc2c1CN(S(C)(=O)=O)CC2,-6.542,26.38
Cc1ccc(CC(NC(=O)CCS(C)(=O)=O)c2ccccn2)cc1 (centres undefined),-49.38,16.32
O=C(c1cncc(NCC2COc3ccccc3C2)n1)N1CCCC1 (centres undefined),-20.29,-3.51
COCC(=O)NCc1cc2n(n1)CCCN(CCCC1CCCC1)C2,-10.52,20.98
CCN1CC2(CC1=O)CN(C(=O)NC(C)C)CCN(C(=O)NC(C)C)C2,-12.01,-5.488